Consider one substance from PMC11251167.

Amino acid sequences for entries named in this document (tags omitted).
UniProt Q9CWV1: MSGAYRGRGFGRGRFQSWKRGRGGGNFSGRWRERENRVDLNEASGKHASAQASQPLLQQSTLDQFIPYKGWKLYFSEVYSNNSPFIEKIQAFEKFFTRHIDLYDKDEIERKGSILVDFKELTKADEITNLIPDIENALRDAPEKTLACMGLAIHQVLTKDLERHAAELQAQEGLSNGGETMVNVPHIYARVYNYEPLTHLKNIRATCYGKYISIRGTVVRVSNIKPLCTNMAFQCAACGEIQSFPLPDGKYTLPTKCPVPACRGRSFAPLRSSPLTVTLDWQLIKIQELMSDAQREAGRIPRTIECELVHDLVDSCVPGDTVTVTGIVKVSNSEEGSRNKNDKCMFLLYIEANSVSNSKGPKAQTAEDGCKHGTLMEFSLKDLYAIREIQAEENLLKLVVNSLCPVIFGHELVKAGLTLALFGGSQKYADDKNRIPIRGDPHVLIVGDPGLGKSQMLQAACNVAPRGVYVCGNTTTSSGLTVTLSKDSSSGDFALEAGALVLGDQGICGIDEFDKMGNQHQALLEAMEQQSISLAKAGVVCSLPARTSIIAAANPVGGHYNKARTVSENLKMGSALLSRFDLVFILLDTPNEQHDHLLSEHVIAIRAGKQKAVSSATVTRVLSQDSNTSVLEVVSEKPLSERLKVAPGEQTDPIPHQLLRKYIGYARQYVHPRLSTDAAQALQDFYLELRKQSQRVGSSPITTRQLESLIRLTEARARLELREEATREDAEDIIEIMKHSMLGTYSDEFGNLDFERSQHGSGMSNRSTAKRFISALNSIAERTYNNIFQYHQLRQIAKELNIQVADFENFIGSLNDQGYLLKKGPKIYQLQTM
UniProt O70133: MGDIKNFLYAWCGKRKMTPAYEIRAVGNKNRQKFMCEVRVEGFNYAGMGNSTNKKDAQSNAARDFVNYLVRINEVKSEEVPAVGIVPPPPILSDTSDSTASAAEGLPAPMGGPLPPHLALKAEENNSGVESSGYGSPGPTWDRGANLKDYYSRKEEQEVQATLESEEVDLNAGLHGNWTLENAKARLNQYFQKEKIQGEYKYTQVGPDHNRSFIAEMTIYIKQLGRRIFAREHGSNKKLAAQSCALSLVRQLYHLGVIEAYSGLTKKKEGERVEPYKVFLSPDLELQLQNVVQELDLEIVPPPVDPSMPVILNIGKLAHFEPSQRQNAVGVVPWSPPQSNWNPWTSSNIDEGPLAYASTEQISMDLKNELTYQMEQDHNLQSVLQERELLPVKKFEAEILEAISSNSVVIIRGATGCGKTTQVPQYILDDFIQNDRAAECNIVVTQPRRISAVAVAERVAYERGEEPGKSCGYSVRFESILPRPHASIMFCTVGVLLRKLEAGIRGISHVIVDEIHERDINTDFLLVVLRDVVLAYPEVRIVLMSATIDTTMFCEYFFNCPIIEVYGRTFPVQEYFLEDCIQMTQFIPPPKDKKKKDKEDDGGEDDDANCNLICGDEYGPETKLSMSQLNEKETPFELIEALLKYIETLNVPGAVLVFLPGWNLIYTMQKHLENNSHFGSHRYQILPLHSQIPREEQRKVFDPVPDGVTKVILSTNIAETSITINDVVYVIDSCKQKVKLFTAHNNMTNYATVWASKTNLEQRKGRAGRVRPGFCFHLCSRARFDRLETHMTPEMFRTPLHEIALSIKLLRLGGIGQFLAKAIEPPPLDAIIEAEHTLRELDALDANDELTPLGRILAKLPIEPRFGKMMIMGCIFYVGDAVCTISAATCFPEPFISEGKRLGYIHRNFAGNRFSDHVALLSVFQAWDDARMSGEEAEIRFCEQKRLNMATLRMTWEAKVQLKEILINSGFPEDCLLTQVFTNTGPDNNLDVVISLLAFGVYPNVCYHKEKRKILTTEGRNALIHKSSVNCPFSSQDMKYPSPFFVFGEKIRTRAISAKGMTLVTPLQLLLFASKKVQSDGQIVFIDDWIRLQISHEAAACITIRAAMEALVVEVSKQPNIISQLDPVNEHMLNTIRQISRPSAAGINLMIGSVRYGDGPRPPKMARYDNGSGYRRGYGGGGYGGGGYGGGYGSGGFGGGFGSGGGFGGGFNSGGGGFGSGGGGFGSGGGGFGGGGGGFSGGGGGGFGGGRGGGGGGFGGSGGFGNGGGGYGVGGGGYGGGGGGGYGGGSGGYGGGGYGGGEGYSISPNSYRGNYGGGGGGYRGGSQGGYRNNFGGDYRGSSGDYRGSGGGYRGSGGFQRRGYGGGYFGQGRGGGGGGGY

No constants are given. Whether binding was seen depends on the method and setting. In cells and extracts the contact can be indirect. Here binding means that the protein was enriched with, or labelled near, the bait; the list need not be complete.

For this test, the target named is MCM8 (Minichromosome Maintenance 8 Homologous Recombination Repair Factor), mouse, endogenous (mouse (endogenous in P19 cells and E12.5 PGCs)) (UniProt Q9CWV1). Put plainly: affinity purification with mass spectrometry; anti-MCM8 antibody IP from P19 cell lysate, IgG IP as control; in-gel digestion, LC-MS/MS.

Turning to “DHX9, mouse, endogenous (from UniProt O70133 1-1380)”, the binding result was “binds”.
